A short description of the assay: qHTS Assay for Lipid Storage Modulators in Drosophila S3 Cells.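 On cell number change: cells counted by Cell Tracker Red CMTPX staining in the red channel.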 To be noted: BODIPY lipid droplet fluorescence, 18-24 h; for cell number change: measured here: cell count max response, cells fed with added oleic acid. An outline of the steps: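 Drosophila S3 cells got compounds at several concentrations plus oleic acid (400 uM solution). Laser-scanning cytometry with 488 nm excitation read lipid droplets at 500-530 nm and cells at 575-640 nm. Percent activity was relative to 20 uM Triacsin C.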
On the technique in general: Quantitative high-throughput screening tests each substance at several concentrations.

The mark [1] stands for this setting: measured here: cell number channel AC50, cells fed with added oleic acid.
The mark [2] stands for this setting: measured here: lipid fluorescence (Fed channel) AC50, cells fed with added oleic acid.

The list shows a part of the results. The main result of the screen is listed elsewhere. These columns were measured beside it and carry no call. The list favours compounds with an active or inconclusive main result. Words in brackets tell the shape of the fitted curve; partial curves, single points and poor fits give uncertain potencies.

As a reminder, the AC50 is the concentration at which the activity in the assay is half-maximal. Lower therefore signals greater potency.

As for `CC(Sc1cccc[n+]1[O-])C(=O)Nc1ccc(Oc2ccccc2)cc1` (stereo not drawn), the cell number change is -41%. For the same compound, under setting [1], the half-maximal activity concentration (AC50) was 0.251 µM [falling, full curve, poor fit]. For the same compound, under setting [2], the AC50 was 0.794 µM [falling, full curve, poor fit]. As for `CC12c3ccccc3C(c3ccccc31)C1C(=O)N(c3ccncc3)C(=O)C12` (stereo not drawn), the cell number change is -18.8%. For the same compound, the concentration at half-maximal activity (AC50) under setting [2] was 13 µM [falling, partial curve]. For `Cc1nc(Nc2ccccc2Cl)sc1C(=O)Nc1ccccc1`, the cell number change is -23.9%. Under setting [2], the AC50 is 18.4 µM [falling, single point]. Consider `O=C(NC(=S)Nc1cc([N+](=O)[O-])ccc1O)c1cccnc1`, for which the cell number change is 38.4%. The concentration at half-maximal activity (AC50) under setting [1] was 29.1 µM [rising, single point]. Consider `Cc1c(/C=N/NC(=O)C(NC(=O)c2ccc3c(c2)OCO3)C(C)C)c2ccccc2n1C` (stereo not drawn), for which the cell number change turned out to be 19.2%. Further, the AC50 under setting [2] is 0.00517 µM [rising, full curve, poor fit].

Regarding `N#C/C(=C(/O)c1ccccc1F)c1nc2cc(C(F)(F)F)ccc2s1`, the cell number change was -19.4%. In addition, the AC50 under setting [1] is 2.59 µM [falling, single point]. Further, the AC50 under setting [2] was 2.91 µM [falling, full curve]. Take `CC(=O)N1CN(S(=O)(=O)c2ccc(C)cc2)CC1C` (stereo not drawn): the cell number change is -79.7%. Also, the half-maximal activity concentration (AC50) under setting [1] is 18.4 µM [falling, single point]. The concentration at half-maximal activity (AC50) under setting [2] is 29.1 µM [falling, single point]. Regarding `Cc1c(C(=O)O)[nH]c2c1C(=O)CC(c1ccccc1)C2` (stereo not drawn), the cell number change was -10.7%. Turning to `Cc1nc(-c2ccccc2)sc1C(=O)CSc1ccccc1`, the AC50 is, setting by setting: under setting [1], 0.164 µM [rising, partial curve]; under setting [2], 0.0651 µM [rising, full curve]. For the compound `CCOC(=O)C1CCN(C(=O)CCNS(=O)(=O)c2ccc3c(c2)CCN3C(=O)CC)CC1`, the cell number change was -4.96%. Moreover, the half-maximal activity concentration (AC50) under setting [1] is 5.17 µM [rising, single point]. Also, the concentration at half-maximal activity (AC50) under setting [2] is 5.17 µM [falling, single point].

Take `C/C(=N/NC(=O)CC(=O)N/N=C(\C)c1ccc([N+](=O)[O-])cc1)c1ccc([N+](=O)[O-])cc1`: the cell number change was -0.748%. Also, under setting [2], the AC50 is 0.082 µM [falling, full curve, poor fit]. With `COc1ccc(C2C(O)C(c3c[nH]c4ccccc34)=NN2C(=O)CCl)cc1` (stereo not drawn), the cell number change worked out at 1.26%. Besides, under setting [2], the AC50 was 0.206 µM [rising, single point]. Turning to `O=C(Nc1ncc2c(n1)-c1ccccc1CC2)C1CC1`, the cell number change was 1.04%. For the compound `COc1ccc(NC(=O)c2ccc(C#N)cc2)cc1NS(=O)(=O)c1ccc(F)cc1`, the cell number change came to 23.3%. The AC50 under setting [2] was 4.11 µM [rising, partial curve]. Take `CCC(C)n1nccc1NC(=O)C(C)OC(=O)c1cc2ccccc2[nH]1` (stereo not drawn): the cell number change is -13.2%. The AC50 under setting [2] is 0.146 µM [rising, full curve, poor fit]. As to `COCCCNC(=S)NCCCNc1nc2cc3c(cc2cc1C#N)OCO3`, the AC50 under setting [2] was 3.26 µM [rising, partial curve, poor fit]. For `Nc1nnnn1CC(=O)N/N=C/c1ccccn1`, the cell number change was 6.07%. As for `CCOc1ccc([C@@H]2CC=C(C(=O)O)[C@H](c3cccc(Cl)c3)N2S(=O)(=O)c2ccc(C)cc2)cc1`, the AC50 under setting [2] was 2.91 µM [rising, full curve]. As for `O=[N+]([O-])c1ccc(-c2nnc(CNC3CCCC3)o2)cc1`, the cell number change amounted to 48.6%. Further, the AC50 under setting [1] was 1.3 µM [rising, full curve]. The AC50 under setting [2] was 0.92 µM [rising, full curve]. Turning to `Cc1ccc(CNC(=O)c2cc3c(C)nc4ccccc4c3o2)cc1`, under setting [2], the AC50 was 4.61 µM [falling, single point]. As for `Cc1ccccc1OC(C)C(=O)N1CCN(c2ccccn2)CC1` (stereo not drawn), the cell number change was 24.6%. The AC50 under setting [1] is 6.51 µM [rising, partial curve]. Further, the half-maximal activity concentration (AC50) under setting [2] was 4.61 µM [rising, full curve].

With `c1coc(-c2nnc(SCc3nc4ccccc4[nH]3)o2)c1`, the cell number change was -8.71%. Moreover, the AC50 under setting [2] was 2.06 µM [rising, partial curve, poor fit]. With `CCOC(=O)N1CCC(N2CC34C=CC(O3)C(C(=O)Nc3ccc(OCC)cc3)C4C2=O)CC1` (stereo not drawn), the cell number change turned out to be 14.8%. Further, the concentration at half-maximal activity (AC50) under setting [2] was 0.206 µM [falling, full curve, poor fit]. For `CCCN1CCN(C(=O)CCCNC(=O)Cn2cnc3sc(C)c(C)c3c2=O)CC1`, the cell number change was -23.7%. Moreover, the AC50 under setting [2] is 13 µM [falling, partial curve]. With `CCC(Oc1ccccc1)C(=O)Nc1ccsc1C(=O)OC` (stereo not drawn), the cell number change is -33.3%. Besides, the half-maximal activity concentration (AC50) under setting [1] is 7.31 µM [falling, partial curve]. On to `COc1c2ccoc2c(OCC=C(C)C)c2oc(=O)ccc12`, for which the cell number change is 15.5%. For the same compound, under setting [2], the AC50 is 0.291 µM [rising, full curve]. With `CCCCc1ccc(N=N/C(C(=O)Nc2cc(OC)c(NC(C)=O)cc2OC)=C(/C)O)cc1`, the cell number change worked out at 20.1%. In addition, the concentration at half-maximal activity (AC50) under setting [2] was 29.1 µM [falling, single point]. For `O=C(CSc1nnc(COc2ccc(Cl)cc2)o1)NC1CCCCC1`, the cell number change turned out to be 27.4%. Under setting [2], the half-maximal activity concentration (AC50) is 0.651 µM [falling, single point]. With `C/C(=N/O)c1cc(C(C)(C)C)c(O)c(C(C)(C)C)c1`, the cell number change came to 6.72%. `CC(C)OC(=O)c1cccnc1SCc1cc(=O)n2ccccc2n1`: the cell number change is 23.5%. Besides, under setting [2], the AC50 is 0.411 µM [rising, full curve, poor fit]. As to `C=CCOc1ccc(C2OC34CCCCC3C(C#N)(C#N)C2(C#N)C(=N)O4)cc1` (stereo not drawn), the cell number change was found to be 30.4%. The AC50 under setting [1] was 13 µM [rising, single point]. As for `CN(C(=O)CSc1ncnc2scc(-c3ccccc3)c12)C1CCS(=O)(=O)C1` (stereo not drawn), the cell number change was found to be 35%. In addition, the half-maximal activity concentration (AC50) under setting [1] was 11.6 µM [rising, partial curve]. The AC50 under setting [2] is 11.6 µM [rising, partial curve]. Take `CC1(C)C=Cc2c(ccc3c2OC[C@H](c2ccc(O)cc2O)C3)O1`: the cell number change was -81.6%. In addition, the half-maximal activity concentration (AC50) under setting [1] was 14.6 µM [falling, partial curve].

As to `O=S(=O)(c1ccc(Cl)c(C(F)(F)F)c1)N1CCN(CC(O)COCC2CCCO2)CC1` (stereo not drawn), the AC50 under setting [1] was 0.731 µM [falling, single point].

For `O=c1/c(=C/c2ccco2)sc2n1CN(c1cccc(Br)c1)CN=2`, the cell number change was determined as 73.3%. Moreover, the AC50 under setting [1] was 0.731 µM [rising, full curve]. The AC50 under setting [2] was 1.84 µM [rising, full curve]. Turning to `O=C(CCSc1ccccc1)N1CCN(C(=O)c2ccco2)CC1`, the half-maximal activity concentration (AC50) under setting [2] is 0.731 µM [falling, full curve]. Take `O=C1CC(N2CCOCC2)C(=O)N1c1ccccc1Cl` (stereo not drawn): the cell number change was -19%. The concentration at half-maximal activity (AC50) under setting [2] is 29.1 µM [falling, single point]. With `CCOC(=O)C(NC(=O)c1ccccc1Cl)(Nc1sc2c(c1C(N)=O)CCC2)C(F)(F)F` (stereo not drawn), the cell number change was -47.1%. Also, under setting [1], the half-maximal activity concentration (AC50) was 20.6 µM [falling, partial curve]. Also, under setting [2], the AC50 was 18.4 µM [falling, partial curve].

For `Cc1cc(NC2C3CC4CC(C3)CC2C4)n2ncnc2n1` (stereo not drawn), the cell number change is -12.4%. Moreover, the AC50 under setting [2] is 32.6 µM [falling, single point]. Turning to `NS(=O)(=O)c1ccc(CCNC(=O)c2ccc(C(=O)c3ccccc3)cc2)cc1`, the cell number change worked out at 28.3%. Under setting [2], the AC50 was 29.1 µM [rising, single point].

`O=[N+]([O-])c1cccc(S(=O)(=O)N2CCc3ccccc3C2)c1`: the cell number change was 67.1%. Also, under setting [1], the AC50 is 32.6 µM [rising, partial curve]. On to `CN(c1cccc(NC(=O)CN(c2cccc(F)c2)S(C)(=O)=O)c1)S(C)(=O)=O`, for which the cell number change came to 29.4%. The half-maximal activity concentration (AC50) under setting [1] is 1.64 µM [falling, partial curve]. As to `Cc1ccc(NC(=O)COC(=O)C2CC(=O)N(Cc3ccccc3)C2)cc1S(=O)(=O)N(C)C` (stereo not drawn), the cell number change amounted to 2.82%. The half-maximal activity concentration (AC50) under setting [1] was 0.00461 µM [rising, full curve, poor fit]. `O=C(N=C1N=C2C=CC=CN2Cc2ccccc21)c1ccc(S(=O)(=O)N2CCOCC2)cc1`: the cell number change was 42.8%. For the same compound, the concentration at half-maximal activity (AC50) under setting [1] was 5.8 µM [rising, partial curve, poor fit]. Further, the AC50 under setting [2] is 25.9 µM [rising, single point].

In the case of `O=C(CN1CCN(S(=O)(=O)c2cc(Cl)ccc2Cl)CC1)Nc1ccc2c(c1)OCCO2`, the concentration at half-maximal activity (AC50) under setting [1] was 4.11 µM [rising, single point]. Regarding `Cc1cc(NC(=O)COC(=O)COc2ccc(C(=O)c3ccccc3)cc2)no1`, the cell number change was -24.2%. For the same compound, the AC50 under setting [2] was 29.1 µM [rising, single point]. For the compound `Fc1ccc(-c2cc(C(F)(F)C(F)F)[nH]n2)cc1`, the cell number change is -2.81%. Also, under setting [2], the AC50 is 6.51 µM [rising, single point]. As to `COc1ccccc1OCc1nc(-c2ccc([N+](=O)[O-])cc2)no1`, the cell number change worked out at 55.3%. In addition, under setting [1], the concentration at half-maximal activity (AC50) is 5.8 µM [rising, partial curve]. Besides, the concentration at half-maximal activity (AC50) under setting [2] was 5.8 µM [rising, partial curve].

With `COc1cc2c(cc1OC)C(C)N(C(=O)c1cc3c(s1)-c1c(C)cccc1OC3)CC2` (stereo not drawn), the cell number change came to 17.1%. In addition, under setting [2], the AC50 is 4.11 µM [rising, single point]. Take `CC(Oc1ccc2c3c(c(=O)oc2c1)CCCC3)C(=O)NCC(O)c1ccccc1` (stereo not drawn): the cell number change is -6.27%. Take `CCCCC1(C)NC(=S)N2N1C(=S)NC2(C)CCCC` (stereo not drawn): the cell number change was -8.3%. Turning to `Cc1ncc([N+](=O)[O-])n1CC(=O)NCCc1ccccc1`, the cell number change was -28.8%. In addition, the AC50 under setting [2] was 20.6 µM [falling, single point]. Consider `Cc1ccc(-n2ccnc(SCC(=O)NC3CCCC3)c2=O)cc1Cl`, for which the cell number change was -11.3%.

`COC(=O)c1ccc2c(=O)n(CCN3CCOCC3)c(=S)[nH]c2c1`: the cell number change was determined as 56.9%. For the same compound, the AC50 under setting [1] was 11.6 µM [rising, partial curve]. Further, under setting [2], the AC50 is 11.6 µM [rising, partial curve]. For `CCOc1ccc(/C=N/NC(=O)C(=O)N2CCCCCC2)c2ccccc12`, the cell number change is -55.8%. In addition, the concentration at half-maximal activity (AC50) under setting [1] is 29.1 µM [falling, partial curve, poor fit]. In addition, under setting [2], the AC50 is 29.1 µM [falling, single point].

Take `CCOC(=O)c1cc(-c2ccccc2)nn1CCC#N`: the AC50 under setting [1] is 0.0731 µM [rising, full curve, poor fit]. As for `O=C(NCc1cccnc1)Nc1ccc2c(c1)OCO2`, the cell number change came out at 16.6%. The AC50 under setting [2] was 29.1 µM [rising, single point].

These data come from PubChem BioAssay AID2685 (National Center for Advancing Translational Sciences (NCATS), 2010).
